Source: PubChem BioAssay AID1487 (National Center for Advancing Translational Sciences (NCATS), 2009)
The other results are listed elsewhere or left out. Further columns of the screen follow, without active or inactive calls. The list favours compounds with an active or inconclusive main result. Potencies come from curve fits of mixed quality, noted in brackets.

Test: qHTS Assay for Modulators of Lamin A Splicing
Settings: HeLa LMNA splicing GFP/RFP minigene ratio, 48 h
Excerpt: NCGC Assay Overview: Hutchinson-Gilford Progeria Syndrome (HGPS) is a pediatric premature aging disease caused by a spontaneous mutation in the lamin A/C (LMNA) gene. The mutation activates a cryptic splice site in the LMNA pre-mRNA which results in production of a pre-lamin A protein that cannot be processed properly. The mutant protein accumulates in the nucleus and negatively affects numerous cellular functions. Correction of the splicing defect in HGPS patient cells using a targeted oligonucleotide (exo11) leads to reversal of the cellular disease phenotypes. To identify small molecule modulators of aberrant LMNA splicing, a homogenous assay was constructed in HeLa cells that used a GFP containing minigene to report on correction of aberrant splicing in lamin A and a RFP (DsRed2) to report on cell viability, uniformity and nonspecific effects on the assay signal. This assay was adapted to laser-scanning microplate cytometry (Acumen, TTP Labtech) where miniaturization of the assay to a 1,536-well plate format was possible. References: Bowen, W. P.; Wylie, P. G. Application of Laser-Scanning Fluorescence Microplate Cytometry in High Content Screening. Assay Drug Dev Technol 2006;4:209-221. Scaffidi P, Misteli T. Reversal of the cellular phenotype in the premature aging disease Hutchinson-Gilford progeria syndrome. Nat.
NCGC Assay Protocol Summary: Reagents/Controls: Stable clones expressing DsRed2 and lamin A-EGFP were generated by Cell and Molecular Technologies in S3 HeLa cells. HeLa cells were prepared for the assay when they were 70-90% confluent. The cells were counted and resuspended in Opti-MEM I (no phenol red; Gibco), 2% FBS, 1% penicillin/ streptomycin (Gibco) at concentration of 120 cells/uL concentration. The suspension was passed through a Falcon basket filter with pore size 40um (Beckton Dickson). Control titrations: column […] 1536-well plate contained a sixteen point titration (1:2 dilutions) in duplicate of ancitabine (Sigma: A8598) beginning at 40 uM final concentration. Column 2 contained a sixteen point titration (1:2 dilutions) of cycloheximide beginning at 1.4 mM final concentration. Column 3 contained ancitabine at 40 uM and column 4 contained was the vehicle control (0.5% DMSO final concentration). Assay Steps: 5 uL of HeLa cells were plated in Aurora LoBase black clear bottom (cyclic-olefin polymer) 1536-well plates at a final density of 600 cells/well. Controls and library compounds were added with a 1536-well pin array using the Kalypsys pin-tool. The plates were then incubated for 48 hrs in a cell-culture incubator (37 °C; 5% CO2, 98% humidity). Following incubation the plates were read on the Acumen Explorer using the 488 nm laser. Data was collected on objects between 10 and 100 um in size. Cell objects were defined by a 15 um width x 10 um depth filter. The ratio of the total object intensity in PMT1 (500-530 nm emission; GFP) over PMT3 (575-640 nm emission; RFP) was calculated for analysis. Keywords: NIH Roadmap, MLSCN, MLI, MLSMR, qHTS, NCGC, lamin A, Progeria, RNA splicing.

[1] = measured here: GFP splicing reporter channel
[2] = measured here: RFP viability control channel

| Compound | AC50 [1] | AC50 [2] |
| --- | --- | --- |
| CCC(C)NC(=O)c1ccc2c(c1)nc1n2CCCCC1 (stereo not given) | 0.126 µM [rising, full curve, poor fit] | – |
| CCN(CC)S(=O)(=O)c1cccc(-c2n[nH]c(=S)n2/N=C/c2ccc(Br)cc2)c1 | 17.8 µM [rising, partial curve, poor fit] | 35.5 µM [rising, single point] |
| Cc1cccc(-c2ncc(CN3CCC(CO)(CCCc4ccccc4)CC3)cn2)c1 | – | 12.6 µM [falling, single point] |
| CCOC(=O)CNC(=O)Nc1cc(C(=O)NCc2ccc(C(C)C)cc2)ccc1N1CCCC1 | – | 20 µM [falling, single point] |
| N#Cc1c(C(F)(F)F)cc(-c2ccco2)nc1SCc1ccccn1 | 4.47 µM [rising, partial curve, poor fit] | – |
| COc1ccc(Nc2ccc(Cl)cc2)c(C(=O)O)c1 | – | 14.1 µM [rising, partial curve] |
| CC(C)c1ccc(/C=C/C2=NNC(=O)CC2)cc1 | – | 2 µM [falling, full curve] |
| Cn1c(=O)c(=O)n(C)c2cc(S(=O)(=O)N3CCc4ccccc43)ccc21 | 22.4 µM [rising, single point] | – |
| O=C(Nc1cccc2ccccc12)c1ccc(OC(=S)N2CCOCC2)cc1 | 2.51 µM [rising, full curve, poor fit] | 11.2 µM [rising, partial curve] |
| Cc1ccc(S(=O)(=O)N(C)C)cc1NC(=S)NC12CC3CC(CC(C3)C1)C2 | – | 35.5 µM [rising, single point] |
| COc1ccc(-c2nc(=S)c3c([nH]2)Oc2ccc(C)cc2C3)cc1O | 10 µM [rising, partial curve, poor fit] | 10 µM [rising, partial curve, poor fit] |
| Cc1ccc(-n2nnc3c(=O)oc4ccccc4c32)cc1 | 25.1 µM [falling, single point] | – |
| CCCn1nc(C(=O)OCC(=O)Nc2cccc(OC)c2)c2ccccc2c1=O | 0.0158 µM [falling, full curve, poor fit] | 0.00891 µM [falling, full curve, poor fit] |
| O=C(c1cc(-c2cccs2)on1)N1CCN(c2ccccc2)CC1 | 35.5 µM [rising, single point] | 35.5 µM [rising, single point] |
| CCOC(=O)c1c2ccc(OCC(=O)N/N=C/c3ccc(C)cc3)cc2n2ccccc12 | – | 3.98 µM [falling, partial curve] |

Quoted from the entries so far (two entries):

| Compound | AC50 [1] | AC50 [2] |
| --- | --- | --- |
| N#Cc1c(C(F)(F)F)cc(-c2ccco2)nc1SCc1ccccn1 | 4.47 µM [rising, partial curve, poor fit] | – |
| COc1ccc(Nc2ccc(Cl)cc2)c(C(=O)O)c1 | – | 14.1 µM [rising, partial curve] |
